According to the supplement of paper PMC12823440, “Inhibitors supercharge kinase turnover through native proteolytic circuits” (Nature, 2025):
Where a name gives a salt, the structure may show the parent alone. The list shows a part of the results. Hit calls seldom repeat between salt and free forms of one compound.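 Kinases, fused to nanoluciferase, were expressed in K562 cells; luminescence was measured every 4 h from 2 to 18 h as percent of control (DMSO = 100%, positive control = 0%). A time point is decreased if signal falls significantly (2 sigma). Hits were called by the authors by a rule that is not shown; the count of time points alone does not decide it.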

The chains behind the UniProt entries cited, without tags or fusion partners. Where a name states a change or a piece, a line headed by the entry shows the natural chain unless it says otherwise.
UniProt Q8IWU2: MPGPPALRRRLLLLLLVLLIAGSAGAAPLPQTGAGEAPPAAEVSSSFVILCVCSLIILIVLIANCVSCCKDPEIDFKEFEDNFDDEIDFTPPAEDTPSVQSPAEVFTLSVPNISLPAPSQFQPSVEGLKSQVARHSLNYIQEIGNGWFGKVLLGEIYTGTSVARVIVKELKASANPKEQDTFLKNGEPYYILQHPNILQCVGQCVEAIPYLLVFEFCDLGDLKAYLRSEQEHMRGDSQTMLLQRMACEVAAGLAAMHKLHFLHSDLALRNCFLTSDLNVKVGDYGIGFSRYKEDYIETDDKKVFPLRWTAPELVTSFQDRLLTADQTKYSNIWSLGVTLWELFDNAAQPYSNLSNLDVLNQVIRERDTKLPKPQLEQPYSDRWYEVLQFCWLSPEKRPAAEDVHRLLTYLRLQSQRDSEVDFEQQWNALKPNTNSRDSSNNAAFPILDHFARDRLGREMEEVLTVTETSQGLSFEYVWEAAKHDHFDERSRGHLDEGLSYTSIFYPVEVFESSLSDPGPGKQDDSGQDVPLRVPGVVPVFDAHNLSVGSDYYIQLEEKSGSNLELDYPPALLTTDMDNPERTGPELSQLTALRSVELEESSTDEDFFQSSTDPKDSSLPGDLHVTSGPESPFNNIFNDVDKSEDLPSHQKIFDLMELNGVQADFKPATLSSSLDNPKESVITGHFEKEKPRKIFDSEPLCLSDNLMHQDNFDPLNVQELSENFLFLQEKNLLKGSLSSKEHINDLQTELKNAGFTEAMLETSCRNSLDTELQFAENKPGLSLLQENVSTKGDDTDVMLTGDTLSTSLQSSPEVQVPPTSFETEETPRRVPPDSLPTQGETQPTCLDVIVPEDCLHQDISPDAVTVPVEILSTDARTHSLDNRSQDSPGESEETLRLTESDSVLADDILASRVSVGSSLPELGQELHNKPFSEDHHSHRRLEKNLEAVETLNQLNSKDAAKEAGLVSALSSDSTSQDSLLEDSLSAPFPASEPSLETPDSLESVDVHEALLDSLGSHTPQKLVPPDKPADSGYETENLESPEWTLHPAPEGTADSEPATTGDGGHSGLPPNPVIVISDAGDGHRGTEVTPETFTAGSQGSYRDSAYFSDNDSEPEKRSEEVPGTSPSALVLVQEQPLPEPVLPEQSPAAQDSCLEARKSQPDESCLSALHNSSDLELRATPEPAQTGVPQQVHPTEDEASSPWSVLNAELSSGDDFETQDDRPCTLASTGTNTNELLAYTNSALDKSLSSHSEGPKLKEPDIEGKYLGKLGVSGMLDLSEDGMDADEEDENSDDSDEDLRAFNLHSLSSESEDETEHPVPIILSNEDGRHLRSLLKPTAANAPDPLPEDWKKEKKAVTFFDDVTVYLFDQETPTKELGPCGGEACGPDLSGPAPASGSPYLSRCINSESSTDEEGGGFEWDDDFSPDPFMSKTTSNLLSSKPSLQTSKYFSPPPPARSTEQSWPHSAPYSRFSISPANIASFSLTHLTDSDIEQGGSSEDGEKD
UniProt P07948: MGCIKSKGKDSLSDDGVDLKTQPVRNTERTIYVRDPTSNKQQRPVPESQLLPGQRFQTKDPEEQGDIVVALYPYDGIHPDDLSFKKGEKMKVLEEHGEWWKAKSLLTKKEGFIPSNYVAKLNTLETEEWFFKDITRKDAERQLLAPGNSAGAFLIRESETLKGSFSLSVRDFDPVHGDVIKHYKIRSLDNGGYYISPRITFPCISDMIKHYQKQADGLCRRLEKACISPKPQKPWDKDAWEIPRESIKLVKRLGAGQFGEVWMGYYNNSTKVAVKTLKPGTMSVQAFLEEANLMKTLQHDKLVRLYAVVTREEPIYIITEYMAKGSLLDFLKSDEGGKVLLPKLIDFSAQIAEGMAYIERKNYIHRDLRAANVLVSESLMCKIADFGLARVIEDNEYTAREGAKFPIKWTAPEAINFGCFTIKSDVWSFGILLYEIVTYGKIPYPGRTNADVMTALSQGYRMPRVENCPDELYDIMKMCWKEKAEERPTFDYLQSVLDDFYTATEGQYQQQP
UniProt Q12851: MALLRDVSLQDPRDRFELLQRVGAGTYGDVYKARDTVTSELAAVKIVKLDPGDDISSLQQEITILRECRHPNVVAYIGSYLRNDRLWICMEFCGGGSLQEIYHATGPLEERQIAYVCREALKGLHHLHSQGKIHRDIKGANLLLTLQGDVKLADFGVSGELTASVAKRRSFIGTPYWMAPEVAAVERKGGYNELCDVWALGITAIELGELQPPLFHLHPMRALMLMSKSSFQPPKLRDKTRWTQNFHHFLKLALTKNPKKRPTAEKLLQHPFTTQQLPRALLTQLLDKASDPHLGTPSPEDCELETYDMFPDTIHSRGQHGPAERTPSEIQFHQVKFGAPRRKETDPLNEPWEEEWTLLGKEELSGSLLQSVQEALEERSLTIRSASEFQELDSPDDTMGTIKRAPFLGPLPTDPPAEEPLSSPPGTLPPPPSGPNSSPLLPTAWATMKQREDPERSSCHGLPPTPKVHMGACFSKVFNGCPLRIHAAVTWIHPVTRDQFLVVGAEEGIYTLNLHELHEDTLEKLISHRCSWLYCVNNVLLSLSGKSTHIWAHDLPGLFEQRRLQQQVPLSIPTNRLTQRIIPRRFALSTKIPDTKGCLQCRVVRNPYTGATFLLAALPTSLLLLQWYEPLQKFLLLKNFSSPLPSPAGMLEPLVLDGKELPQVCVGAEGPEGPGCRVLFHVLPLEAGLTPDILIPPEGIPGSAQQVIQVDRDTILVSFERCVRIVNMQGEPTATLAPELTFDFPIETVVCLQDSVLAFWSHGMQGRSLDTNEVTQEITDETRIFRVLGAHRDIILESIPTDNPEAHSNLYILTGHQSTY
UniProt P28482, whole entry: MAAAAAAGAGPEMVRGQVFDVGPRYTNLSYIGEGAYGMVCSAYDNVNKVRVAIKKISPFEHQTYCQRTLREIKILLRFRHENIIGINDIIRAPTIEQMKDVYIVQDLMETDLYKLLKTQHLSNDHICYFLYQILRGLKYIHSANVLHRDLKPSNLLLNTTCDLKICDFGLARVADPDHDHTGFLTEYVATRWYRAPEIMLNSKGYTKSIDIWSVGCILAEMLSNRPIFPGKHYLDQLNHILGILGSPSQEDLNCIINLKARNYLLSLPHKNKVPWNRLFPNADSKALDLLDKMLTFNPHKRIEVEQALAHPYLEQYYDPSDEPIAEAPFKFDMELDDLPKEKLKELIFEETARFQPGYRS
UniProt P31152, whole entry: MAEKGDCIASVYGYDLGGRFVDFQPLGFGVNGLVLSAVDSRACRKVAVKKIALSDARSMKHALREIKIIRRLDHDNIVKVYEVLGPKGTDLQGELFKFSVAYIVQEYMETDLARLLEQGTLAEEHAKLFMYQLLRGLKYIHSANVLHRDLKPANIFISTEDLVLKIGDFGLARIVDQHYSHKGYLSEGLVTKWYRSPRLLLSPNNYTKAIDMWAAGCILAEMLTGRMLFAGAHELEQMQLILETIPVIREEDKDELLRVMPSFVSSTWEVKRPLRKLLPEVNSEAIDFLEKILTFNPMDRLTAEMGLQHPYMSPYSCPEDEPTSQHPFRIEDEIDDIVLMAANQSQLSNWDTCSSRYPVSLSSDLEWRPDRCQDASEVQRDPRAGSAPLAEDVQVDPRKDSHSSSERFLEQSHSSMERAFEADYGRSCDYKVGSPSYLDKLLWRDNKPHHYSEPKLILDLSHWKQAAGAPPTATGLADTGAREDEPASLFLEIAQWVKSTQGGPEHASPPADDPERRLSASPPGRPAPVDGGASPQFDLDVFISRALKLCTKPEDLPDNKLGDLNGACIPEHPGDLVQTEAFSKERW
UniProt P49137, whole entry, looked up: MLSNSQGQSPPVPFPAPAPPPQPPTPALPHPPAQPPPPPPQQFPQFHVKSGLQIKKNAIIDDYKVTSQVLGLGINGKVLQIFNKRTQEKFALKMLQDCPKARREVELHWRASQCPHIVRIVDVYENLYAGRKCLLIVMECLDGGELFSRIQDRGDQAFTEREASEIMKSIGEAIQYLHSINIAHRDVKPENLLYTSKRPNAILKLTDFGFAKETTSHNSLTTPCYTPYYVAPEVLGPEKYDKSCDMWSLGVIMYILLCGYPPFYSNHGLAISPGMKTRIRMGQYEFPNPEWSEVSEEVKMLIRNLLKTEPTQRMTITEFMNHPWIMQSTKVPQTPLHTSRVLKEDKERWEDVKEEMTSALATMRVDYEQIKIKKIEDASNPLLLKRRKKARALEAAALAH
UniProt Q9BUB5: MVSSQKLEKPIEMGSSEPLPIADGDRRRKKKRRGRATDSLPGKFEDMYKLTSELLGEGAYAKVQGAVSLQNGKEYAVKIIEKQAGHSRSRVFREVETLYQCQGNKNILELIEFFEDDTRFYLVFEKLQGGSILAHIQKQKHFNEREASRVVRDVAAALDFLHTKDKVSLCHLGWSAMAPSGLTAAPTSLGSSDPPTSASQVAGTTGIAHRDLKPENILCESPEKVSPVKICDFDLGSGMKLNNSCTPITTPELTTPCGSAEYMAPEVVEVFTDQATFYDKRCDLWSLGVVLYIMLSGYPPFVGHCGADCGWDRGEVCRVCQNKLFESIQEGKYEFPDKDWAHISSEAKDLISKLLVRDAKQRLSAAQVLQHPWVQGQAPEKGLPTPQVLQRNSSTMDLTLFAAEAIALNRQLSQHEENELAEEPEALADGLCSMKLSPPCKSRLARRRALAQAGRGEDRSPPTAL
UniProt Q16620, whole entry, looked up: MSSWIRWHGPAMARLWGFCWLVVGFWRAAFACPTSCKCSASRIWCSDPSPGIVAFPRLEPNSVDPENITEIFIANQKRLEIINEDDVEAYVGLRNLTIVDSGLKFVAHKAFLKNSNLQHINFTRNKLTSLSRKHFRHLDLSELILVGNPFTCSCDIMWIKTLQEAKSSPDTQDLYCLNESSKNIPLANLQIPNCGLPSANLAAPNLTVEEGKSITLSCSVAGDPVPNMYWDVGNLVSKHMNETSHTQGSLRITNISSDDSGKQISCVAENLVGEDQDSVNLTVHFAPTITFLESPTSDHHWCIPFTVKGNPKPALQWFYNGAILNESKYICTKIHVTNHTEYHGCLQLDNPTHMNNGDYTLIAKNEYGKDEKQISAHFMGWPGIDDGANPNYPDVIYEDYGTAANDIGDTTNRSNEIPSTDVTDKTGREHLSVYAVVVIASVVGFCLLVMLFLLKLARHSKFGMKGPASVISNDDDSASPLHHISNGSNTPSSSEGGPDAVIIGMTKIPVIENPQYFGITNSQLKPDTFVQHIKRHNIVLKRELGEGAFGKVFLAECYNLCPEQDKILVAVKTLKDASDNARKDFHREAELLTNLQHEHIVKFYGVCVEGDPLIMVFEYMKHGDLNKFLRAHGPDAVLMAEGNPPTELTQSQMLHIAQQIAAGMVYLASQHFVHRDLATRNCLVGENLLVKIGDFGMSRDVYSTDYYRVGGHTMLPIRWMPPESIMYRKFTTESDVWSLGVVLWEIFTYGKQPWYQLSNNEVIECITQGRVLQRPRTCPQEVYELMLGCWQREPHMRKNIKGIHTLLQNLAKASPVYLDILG

Columns and labels:
Test in all cases: number of time points (of 5) at which kinase-Nluc abundance scored as decreased, DMSO-normalised (count); higher = more persistent destabilization
Settings in all cases: K562; 2-18 h
LMTK2 = LMTK2 (UniProt Q8IWU2)
LYN = LYN (UniProt P07948)
MAP2K1 = MAP2K1 (UniProt Q02750)
MAP2K2 = MAP2K2 (UniProt P36507)
MAP4K2 = MAP4K2 (UniProt Q12851)
MAPK1 = MAPK1 (UniProt P28482)
MAPK4 = MAPK4 (UniProt P31152)
MAPKAPK2 = MAPKAPK2 (UniProt P49137)
MKNK1 = MKNK1 (UniProt Q9BUB5)
NTRK2 = NTRK2 (UniProt Q16620)

| SMILES | number of time points (LMTK2) | number of time points (LYN) | number of time points (MAP2K1) | number of time points (MAP2K2) | number of time points (MAP4K2) | number of time points (MAPK1) | number of time points (MAPK4) | number of time points (MAPKAPK2) | number of time points (MKNK1) | number of time points (NTRK2) |
| --- | --- | --- | --- | --- | --- | --- | --- | --- | --- | --- |
| CCc1ccc(C(=O)COc2ccc(CC3SC(=O)NC3=O)cc2)nc1 (stereo not given) (10 µM) | 0 | 0 | 0 | 0 | 0 | 0 | 0 | 0 | 0 | 0 |
| COc1ccc(-n2c(C)c([N+](=O)[O-])c3ccc(O)cc32)cc1 (10 µM) | 0 | 0 | 0 | 0 | 0 | 0 | 0 | 0 | 0 | 0 |
| CN(C)Cc1cccc(N=C(c2ccccc2)c2c(O)[nH]c3cc(C(N)=O)ccc23)c1 (10 µM) | 0 | 0 | 0 | 0 | 0 | 0 | 0 | 0 | 0 | 0 |
| CCc1cccc(CC)c1NC(=O)c1nn(C)c2c1CCc1cnc(Nc3ccc(C(=O)NC4CCN(C)CC4)cc3OC(F)(F)F)nc1-2 (2 µM) | 0 | 0 | 0 | 0 | 0 | 0 | 0 | 0 | 0 | 0 |
| Oc1ccccc1C(=S)N1CCCC1 (10 µM) | 0 | 0 | 0 | 0 | 0 | 0 | 0 | 0 | 0 | 0 |
| C[C@@H]1COCCN1c1cc(=O)n2c(n1)N(Cc1cncc(Cl)c1)[C@H](C(F)(F)F)CC2 (10 µM) | 2 | 0 | 0 | 0 | 0 | 0 | 0 | 0 | 0 | 0 |
| O=c1ccc2ccc(O)c(O)c2o1 [Daphnetin] (10 µM) | 0 | 0 | 0 | 0 | 0 | 0 | 0 | 0 | 0 | 0 |
| Cc1cccc(-c2[nH]ncc2-c2ccc3ncccc3n2)n1 (10 µM) | 0 | 0 | 0 | 0 | 0 | 0 | 0 | 0 | 0 | 0 |
| N=C(N)NC(=N)NCCc1ccccc1 [Phenformin (hydrochloride)] (10 µM) | 0 | 0 | 0 | 0 | 0 | 0 | 0 | 0 | 0 | 0 |
| CCC(C)(C)C(=O)N(O)Cc1ccccc1 (10 µM) | 0 | 0 | 0 | 0 | 0 | 0 | 0 | 0 | 0 | 0 |
| CCOc1c([C@H](C)n2nc(C)c3c(N)ncnc32)cc(Cl)c(F)c1[C@@H]1CNC(=O)C1 [Parsaclisib (hydrochloride)] (10 µM) | 0 | 0 | 0 | 0 | 0 | 0 | 0 | 0 | 0 | 0 |
| COc1ccc(CCNc2ncc3c(=O)n(-c4cccc(F)c4)c(=O)[nH]c3n2)cc1OC (2 µM) | 0 | 0 | 0 | 0 | 0 | 0 | 0 | 0 | 0 | 0 |
| NS(=O)(=O)c1ccc(N2N=C(c3ccccc3)CC2c2ccccc2)cc1 (stereo not given) (10 µM) | 0 | 0 | 0 | 0 | 0 | 0 | 0 | 0 | 0 | 0 |
| COc1cc(N2CCC(N(C)C)CC2)ccc1Nc1ncc(Cl)c(Nc2ccccc2P(C)(C)=O)n1 (2.5 µM) | 0 | 0 | 0 | 0 | 0 | 0 | 0 | 0 | 0 | 0 |
| O=C(O)c1ccc(-c2c[nH]c3ncc(-c4ccccc4)cc23)cc1C1CCCC1 (2.5 µM) | 0 | 0 | 0 | 0 | 0 | 0 | 2 | 0 | 0 | 0 |
| Cn1cc(-c2ccc(F)c(C(F)(F)F)c2)nc1C1CCN(c2ncnc3[nH]ncc23)CC1 (10 µM) | 0 | 0 | 0 | 0 | 0 | 0 | 0 | 0 | 0 | 0 |
| CC[C@@H](N)CNc1ccnc(-c2cc(-c3cnn(C)c3)ccc2O)n1 (2.5 µM) | 3 | 0 | 0 | 0 | 0 | 0 | 0 | 0 | 0 | 0 |

At a glance, part of the list above:

| SMILES | number of time points (LMTK2) | number of time points (LYN) | number of time points (MAP2K1) | number of time points (MAP2K2) | number of time points (MAP4K2) | number of time points (MAPK1) | number of time points (MAPK4) | number of time points (MAPKAPK2) | number of time points (MKNK1) | number of time points (NTRK2) |
| --- | --- | --- | --- | --- | --- | --- | --- | --- | --- | --- |
| CN(C)Cc1cccc(N=C(c2ccccc2)c2c(O)[nH]c3cc(C(N)=O)ccc23)c1 (10 µM) | 0 | 0 | 0 | 0 | 0 | 0 | 0 | 0 | 0 | 0 |
| CCc1cccc(CC)c1NC(=O)c1nn(C)c2c1CCc1cnc(Nc3ccc(C(=O)NC4CCN(C)CC4)cc3OC(F)(F)F)nc1-2 (2 µM) | 0 | 0 | 0 | 0 | 0 | 0 | 0 | 0 | 0 | 0 |
